{
  "sequences": {"note": "Amino acid sequences for entries named in this document (tags omitted).", "UniProt P11308, whole entry, looked up": "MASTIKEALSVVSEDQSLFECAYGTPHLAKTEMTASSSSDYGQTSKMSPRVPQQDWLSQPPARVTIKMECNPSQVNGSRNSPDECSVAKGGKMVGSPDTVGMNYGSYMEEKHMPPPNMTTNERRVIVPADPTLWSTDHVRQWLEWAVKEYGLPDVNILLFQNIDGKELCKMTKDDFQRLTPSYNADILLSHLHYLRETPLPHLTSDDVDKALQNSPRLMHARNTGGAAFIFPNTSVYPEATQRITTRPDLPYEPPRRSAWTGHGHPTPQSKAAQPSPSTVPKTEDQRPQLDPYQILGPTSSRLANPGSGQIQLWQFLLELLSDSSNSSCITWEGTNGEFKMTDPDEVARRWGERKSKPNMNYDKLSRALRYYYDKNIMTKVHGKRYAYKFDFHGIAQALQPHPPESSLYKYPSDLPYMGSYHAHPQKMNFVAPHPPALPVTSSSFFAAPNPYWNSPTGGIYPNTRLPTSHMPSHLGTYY"},
  "source": "PubChem BioAssay AID624246",
  "about": "(National Center for Advancing Translational Sciences (NCATS), 2012)",
  "note": "In all, about 370,000 compounds went through this assay and about 100 (0.027%) were called active. The inconclusive results got no clear call from the source; some entries with a clear call stand among them for comparison. Calls come from the whole dose curve; as a rule, active = well fitted inhibition curve with a large enough effect in the polarisation, with a control signal flat; inconclusive = small, poorly fitted or top-dose-only effect, or effect the other way, or a change in a side signal; inactive = no such curve, though single readings can be large or run the other way; the % refers to the polarisation. Where the call is inconclusive, the potency comes from a doubtful curve fit. A note “side channel” means that the fit belongs to a control or component signal, not to the main read-out. Potency is the fitted concentration of half-maximal effect.",
  "data": [
    {"target": "Transcriptional regulator ERG (Homo sapiens) (UniProt P11308)", "experiment": "qHTS for Small Molecule Inhibitors of the ERG Ets/DNA interaction; for FP activity, negative = inhibition: % of control where 0% means no effect", "details": "fluorescence polarization, His-ERG Ets domain / labelled DNA; FP activity, negative = inhibition: at 76.9 µM (top of the series)", "how_it_was_run": "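His-tagged ERG Ets domain (1 uM in the protein solution; 300mM KCl, 50mM Tris-HCl, 1mM EDTA, 1mM DTT, pH 7.5) received compound, then a probe mix of 5 nM fluorescein-DNA and 100nM Texas-615-DNA. Fluorescence polarization was read for both dyes.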", "values": [
      {"smiles": "CCOC(=O)/C=c1\\s/c(=C(\\C#N)C(=O)OCC)n(-c2ccccc2)c1=O", "Potency": "inconclusive: 25.1 µM [fluorescent, side channel, partial curve, poor fit]"},
      {"smiles": "Cn1ncc([N+](=O)[O-])c1C(=O)NC1CCCCC1", "Potency": "inconclusive: 11.2 µM [inhibitor, single point]"},
      {"smiles": "CN(C)c1ccc(/C=C/C=C2/SC(=S)N(c3ccccc3)C2=O)cc1", "Potency": "inconclusive: 0.891 µM [fluorescent, side channel, full curve, poor fit]"},
      {"smiles": "CCOc1cccc(CNc2ccc(O)cc2)c1OCc1ccc(Cl)cc1", "Potency": "inconclusive: 50.1 µM [inhibitor, single point]"},
      {"smiles": "CCN(C(=O)COC(=O)CCC(=O)c1cccs1)c1ccccc1", "Potency": "inconclusive: 25.1 µM [inhibitor, partial curve, poor fit]"},
      {"smiles": "CC(/C=C/c1ccc2c(c1)OCO2)=N/NC(=O)c1cccnc1", "FP activity, negative = inhibition": "inactive: 2.79%"},
      {"smiles": "O=Cc1ccc(N2CCCC2)o1", "Potency": "inconclusive: 7.94 µM [quencher, side channel, single point]"},
      {"smiles": "Cc1oc2cc3oc(=O)c(CCC(=O)NC4CC4)c(C)c3cc2c1C", "FP activity, negative = inhibition": "inactive: 0.79%"},
      {"smiles": "O=C(Nc1ccc(C(=O)O)cc1)/C(=C\\c1cccc([N+](=O)[O-])c1)NC(=O)c1ccc(Br)o1", "Potency": "inconclusive: 50.1 µM [inhibitor, single point]"},
      {"smiles": "COc1cccc(N2CCN(C(=O)c3cnn(-c4ccccc4Cl)c3C3CCN(C(=O)OC(C)(C)C)CC3)CC2)c1", "Potency": "inconclusive: 22.4 µM [quencher, side channel, partial curve, poor fit]"},
      {"smiles": "CCCn1c(=O)c(C(=O)NCc2ccco2)c(O)c2ccccc21", "Potency": "inconclusive: 11.2 µM [inhibitor, single point]"},
      {"smiles": "Cc1[nH]c2ccccc2c1/C=N/Nc1nc(Nc2ccccc2)nc(N2CCOCC2)n1", "Potency": "inconclusive: 44.7 µM [quencher, side channel, partial curve, poor fit]"},
      {"smiles": "CC1CCCCC1NC(=O)CCS(=O)(=O)c1ccc(Cl)cc1", "note": "(stereo unspecified)", "Potency": "inconclusive: 35.5 µM [inhibitor, partial curve]"},
      {"smiles": "COc1cccc(Cn2c(C)c(CNCc3cccc(C)c3)c(C(=O)O)c2C)c1", "Potency": "inconclusive: 35.5 µM [quencher, side channel, partial curve, poor fit]"},
      {"smiles": "C/C(=N/OCO/N=C(\\C)c1ccccc1)c1ccccc1", "Potency": "inconclusive: 11.2 µM [inhibitor, single point]"},
      {"smiles": "OC[C@@H](O)[C@@H](O[C@@H]1O[C@H](CO)[C@H](O)[C@H](O)[C@H]1O)[C@H](O)[C@@H](O)CO", "Potency": "inconclusive: 7.94 µM [inhibitor, single point]"},
      {"smiles": "O=C(OCC(=O)c1ccc(Cl)cc1Cl)c1cnccn1", "Potency": "inconclusive: 50.1 µM [inhibitor, single point]"},
      {"smiles": "COc1ccc(N2CC(NC(=O)COc3ccccc3F)CC2=O)cc1OC", "note": "(stereo unspecified)", "FP activity, negative = inhibition": "inactive: -5.94%"},
      {"smiles": "O=C(Nc1cc2c(cc1Cl)-c1ccc([N+](=O)[O-])cc1C2=NO)C(F)(F)F", "Potency": "inconclusive: 3.16 µM [inhibitor, partial curve, poor fit]"},
      {"smiles": "Cc1ccc(CNC(=O)CSCc2ccc(F)cc2)cc1", "Potency": "inconclusive: 63.1 µM [inhibitor, single point]"},
      {"smiles": "C=CCN1C(=O)CS/C1=C(\\C#N)S(=O)(=O)c1ccc(C)cc1", "Potency": "inconclusive: 39.8 µM [fluorescent, side channel, partial curve, poor fit]"},
      {"smiles": "Nc1nc(-c2ccc(F)cc2)cs1", "FP activity, negative = inhibition": "inactive: 4.21%"},
      {"smiles": "COc1cc(C2N=C(N)Nc3nc4ccccc4n32)ccc1OCCC(C)C", "note": "(stereo unspecified)", "Potency": "inconclusive: 39.8 µM [quencher, side channel, partial curve, poor fit]"},
      {"smiles": "O=C(O)CC(c1cccc2ccccc12)N1Cc2ccccc2C1=O", "note": "(stereo unspecified)", "Potency": "inconclusive: 100 µM [inhibitor, single point]"},
      {"smiles": "Cc1c(-c2nc(N)nc(Nc3ccccc3)n2)oc2ccccc12", "FP activity, negative = inhibition": "inactive: 3.76%"},
      {"smiles": "CN(NC(=O)Nc1ccc(Cl)cc1)c1c(Cl)c(Cl)nn1C", "FP activity, negative = inhibition": "inactive: 9.8%"},
      {"smiles": "COc1cccc(C(=O)C2CCCN(Cc3cccn3-c3ccccn3)C2)c1", "note": "(stereo unspecified)", "Potency": "inconclusive: 39.8 µM [inhibitor, partial curve, poor fit]"},
      {"smiles": "CC(C)(C)NC(=O)C1CC1(c1ccccc1)c1ccccc1", "note": "(stereo unspecified)", "Potency": "inconclusive: 31.6 µM [inhibitor, single point]"},
      {"smiles": "Cc1oc2nc(SCCCC(=O)NCCCO)nc(N)c2c1C", "Potency": "inconclusive: 0.891 µM [inhibitor, full curve, poor fit]"},
      {"smiles": "CCc1c(C)sc(NC(=O)OC)c1C(=O)N1CCCCC1", "Potency": "inconclusive: 7.08 µM [inhibitor, partial curve, poor fit]"},
      {"smiles": "O=C(OCC(=O)c1c[nH]c2ccccc12)c1ccc([N+](=O)[O-])s1", "Potency": "inconclusive: 50.1 µM [inhibitor, single point]"},
      {"smiles": "NS(=O)(=O)c1ccc(NC(=O)c2ccc3c(c2)CCN3S(=O)(=O)c2ccccc2)cc1", "Potency": "inactive"},
      {"smiles": "O=C(COC(=O)Cn1cnc2ccccc21)Nc1ccc2c(c1)C(=O)c1ccccc1C2=O", "FP activity, negative = inhibition": "inactive: 12.4%"},
      {"smiles": "CCCC(=Nc1ccc(N)cc1)C1=C(O)C(C(=O)OC)C(C)(C)CC1=O", "note": "(stereo unspecified)", "Potency": "inconclusive: 39.8 µM [inhibitor, single point]"},
      {"smiles": "Cn1c(N)c(C(=O)N/N=C/c2ccccc2)sc1=S", "Potency": "inconclusive: 31.6 µM [quencher, side channel, partial curve, poor fit]"},
      {"smiles": "COc1ccc2o/c(=N/NC(=O)c3cccs3)c(C(N)=O)cc2c1", "FP activity, negative = inhibition": "inactive: -8.2%"},
      {"smiles": "CC(=O)Nc1ccc(-c2csc(NC(=O)C3CC(=O)N(c4ccc5c(c4)OCCO5)C3)n2)cc1", "note": "(stereo unspecified)", "Potency": "active: 22.4 µM"},
      {"smiles": "COc1ccccc1/C=N/N1C(=O)c2cccc3cccc(c23)C1=O", "Potency": "inconclusive: 39.8 µM [inhibitor, partial curve, poor fit]"},
      {"smiles": "CCN(CC)S(=O)(=O)c1cccc(C(=O)N/N=C/c2ccc(O)c(O)c2O)c1", "FP activity, negative = inhibition": "inactive: 1.56%"},
      {"smiles": "O=c1c2ccccc2n(Cc2cccc(F)c2)c(=O)n1Cc1ccccc1Cl", "Potency": "inconclusive: 15.8 µM [quencher, side channel, partial curve, poor fit]"},
      {"smiles": "CCOC(=O)C1=C(C)N=c2s/c(=C\\c3cc(OC)c(OC)c(OC)c3)c(=O)n2C1/C=C/c1ccccc1", "note": "(stereo unspecified)", "Potency": "inconclusive: 100 µM [inhibitor, single point]"},
      {"smiles": "C=CCN(CC=C)C(=O)CN1C(=O)NC(c2ccccc2)(c2ccccc2)C1=O", "Potency": "inconclusive: 12.6 µM [inhibitor, partial curve]"},
      {"smiles": "Cc1ccc2nc(C)cc(C(=O)OCC(=O)c3ccc(Cl)c([N+](=O)[O-])c3)c2c1", "FP activity, negative = inhibition": "inactive: -8.83%"},
      {"smiles": "CCOc1nc(-c2ccccc2)ncc1Oc1ccccc1", "Potency": "inconclusive: 39.8 µM [quencher, side channel, partial curve, poor fit]"},
      {"smiles": "Cc1cc(C)cc(C(=O)NCC(=O)OCC(=O)N2c3ccccc3NC(=O)C2(C)C)c1", "FP activity, negative = inhibition": "inactive: -4.3%"},
      {"smiles": "COc1ccc(/C=C/c2noc(-c3ccccc3O)n2)cc1", "FP activity, negative = inhibition": "inactive: 1.41%"},
      {"smiles": "CC(C)(CO)CNC(=O)c1ccc(OC2CCN(C(=O)C3CC3)CC2)cc1", "Potency": "inconclusive: 0.891 µM [inhibitor, partial curve, poor fit]"},
      {"smiles": "C=Cc1ccc(CN2C(=O)N(c3cccc(Cl)c3)S(=O)(=O)c3ccccc32)cc1", "Potency": "inconclusive: 50.1 µM [fluorescent, side channel, partial curve, poor fit]"},
      {"smiles": "Cc1ccccc1-c1nc(CS(=O)(=O)CC(=O)NCc2cccc(Cl)c2)c(C)o1", "Potency": "inconclusive: 3.55 µM [quencher, side channel, partial curve, poor fit]"},
      {"smiles": "Cc1cccc(C(=O)N2CCC(=O)N(C(COCc3ccc(Cl)cc3)Cc3ccccc3)CC2)c1", "note": "(stereo unspecified)", "FP activity, negative = inhibition": "inactive: 4.43%"},
      {"smiles": "O=C(NCc1ccc(F)cc1F)c1cc(COc2c(F)cccc2F)on1", "Potency": "inconclusive: 11.2 µM [inhibitor, single point]"},
      {"smiles": "S=C(NC1CCCCC1)N1CCn2cccc2C1c1cccnc1", "note": "(stereo unspecified)", "Potency": "inconclusive: 3.16 µM [quencher, side channel, full curve, poor fit]"},
      {"smiles": "O=C(C[n+]1ccccc1)N/N=C/c1ccccc1F", "Potency": "inconclusive: 35.5 µM [inhibitor, single point]"},
      {"smiles": "CC1=CN2C(=N)/C(=C/c3ccc([N+](=O)[O-])o3)C(=O)N=C2S1", "Potency": "inconclusive: 10 µM [fluorescent, side channel, partial curve, poor fit]"},
      {"smiles": "CC(=O)Nc1ccc(S(=O)(=O)N[C@@H](C)C(=O)N2CCN(C/C=C/c3ccccc3)CC2)cc1", "Potency": "inconclusive: 1.58 µM [inhibitor, full curve, poor fit]"},
      {"smiles": "CCCCN(CC)CCNc1c(NC2CCN(C(=O)OCC)CC2)c(=O)c1=O", "FP activity, negative = inhibition": "inactive: 8.16%"},
      {"smiles": "CC(=O)Nc1ccc2c(c1)NC(=O)CC2", "Potency": "inconclusive: 31.6 µM [inhibitor, single point]"},
      {"smiles": "O=C1Nc2cc(C(=O)N3CCOCC3)ccc2SC1N1CCOCC1", "note": "(stereo unspecified)", "Potency": "inconclusive: 10 µM [inhibitor, full curve, poor fit]"},
      {"smiles": "Cc1ccc(C)c(NC(=S)N2CCCCCC2)c1", "FP activity, negative = inhibition": "inactive: -7.9%"},
      {"smiles": "CC(C)=CCC/C(C)=C/CNC(=O)C[C@H]1C[C@H](C(=O)N2CCCCC2)[C@@]2(CCc3ccccc3)c3[nH]c4cc(-c5ccco5)ccc4c3CCN2C1=O", "Potency": "inconclusive: 28.2 µM [inhibitor, single point]"},
      {"smiles": "CCOc1ccccc1C(=O)N(Cc1ccccc1F)C1CCS(=O)(=O)C1", "note": "(stereo unspecified)", "Potency": "inconclusive: 3.98 µM [fluorescent, side channel, partial curve, poor fit]"}
    ]}
  ]
}
